From the supplement of paper PMC10849652
The list shows a part of the results.

By UniProt entry, the sequences of proteins in these tests, tags left out. Where a name states a change or a piece, a line headed by the entry shows the natural chain unless it says otherwise.
UniProt O14733: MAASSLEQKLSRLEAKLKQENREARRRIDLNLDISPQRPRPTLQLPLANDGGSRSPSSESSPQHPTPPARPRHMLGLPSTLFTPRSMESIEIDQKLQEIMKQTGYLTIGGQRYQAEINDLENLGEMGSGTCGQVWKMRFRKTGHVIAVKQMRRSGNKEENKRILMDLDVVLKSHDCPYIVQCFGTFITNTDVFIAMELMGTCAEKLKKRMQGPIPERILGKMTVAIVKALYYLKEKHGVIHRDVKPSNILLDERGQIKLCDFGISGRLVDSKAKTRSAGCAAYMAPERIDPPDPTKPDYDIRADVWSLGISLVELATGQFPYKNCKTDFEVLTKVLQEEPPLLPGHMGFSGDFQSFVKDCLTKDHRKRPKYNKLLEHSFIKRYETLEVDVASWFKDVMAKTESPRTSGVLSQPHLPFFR
UniProt Q9BX40: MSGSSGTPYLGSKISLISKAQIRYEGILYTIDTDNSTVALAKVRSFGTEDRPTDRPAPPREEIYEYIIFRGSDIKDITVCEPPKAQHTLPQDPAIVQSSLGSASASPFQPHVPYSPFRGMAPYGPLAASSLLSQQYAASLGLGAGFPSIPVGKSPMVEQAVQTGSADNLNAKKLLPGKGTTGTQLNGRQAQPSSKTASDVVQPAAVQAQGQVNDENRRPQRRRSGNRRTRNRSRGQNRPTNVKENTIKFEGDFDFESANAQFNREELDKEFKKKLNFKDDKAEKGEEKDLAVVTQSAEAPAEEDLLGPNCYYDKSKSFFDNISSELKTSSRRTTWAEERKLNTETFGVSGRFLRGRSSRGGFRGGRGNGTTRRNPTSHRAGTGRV
UniProt P43361: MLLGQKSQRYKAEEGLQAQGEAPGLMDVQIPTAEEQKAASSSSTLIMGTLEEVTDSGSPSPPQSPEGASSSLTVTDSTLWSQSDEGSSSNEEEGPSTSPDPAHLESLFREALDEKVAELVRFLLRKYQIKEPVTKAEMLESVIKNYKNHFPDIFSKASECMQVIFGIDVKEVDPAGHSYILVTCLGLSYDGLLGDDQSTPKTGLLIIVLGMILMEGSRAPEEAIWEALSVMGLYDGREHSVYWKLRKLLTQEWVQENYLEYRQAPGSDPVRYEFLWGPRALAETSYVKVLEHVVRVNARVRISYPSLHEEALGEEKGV
UniProt P46821: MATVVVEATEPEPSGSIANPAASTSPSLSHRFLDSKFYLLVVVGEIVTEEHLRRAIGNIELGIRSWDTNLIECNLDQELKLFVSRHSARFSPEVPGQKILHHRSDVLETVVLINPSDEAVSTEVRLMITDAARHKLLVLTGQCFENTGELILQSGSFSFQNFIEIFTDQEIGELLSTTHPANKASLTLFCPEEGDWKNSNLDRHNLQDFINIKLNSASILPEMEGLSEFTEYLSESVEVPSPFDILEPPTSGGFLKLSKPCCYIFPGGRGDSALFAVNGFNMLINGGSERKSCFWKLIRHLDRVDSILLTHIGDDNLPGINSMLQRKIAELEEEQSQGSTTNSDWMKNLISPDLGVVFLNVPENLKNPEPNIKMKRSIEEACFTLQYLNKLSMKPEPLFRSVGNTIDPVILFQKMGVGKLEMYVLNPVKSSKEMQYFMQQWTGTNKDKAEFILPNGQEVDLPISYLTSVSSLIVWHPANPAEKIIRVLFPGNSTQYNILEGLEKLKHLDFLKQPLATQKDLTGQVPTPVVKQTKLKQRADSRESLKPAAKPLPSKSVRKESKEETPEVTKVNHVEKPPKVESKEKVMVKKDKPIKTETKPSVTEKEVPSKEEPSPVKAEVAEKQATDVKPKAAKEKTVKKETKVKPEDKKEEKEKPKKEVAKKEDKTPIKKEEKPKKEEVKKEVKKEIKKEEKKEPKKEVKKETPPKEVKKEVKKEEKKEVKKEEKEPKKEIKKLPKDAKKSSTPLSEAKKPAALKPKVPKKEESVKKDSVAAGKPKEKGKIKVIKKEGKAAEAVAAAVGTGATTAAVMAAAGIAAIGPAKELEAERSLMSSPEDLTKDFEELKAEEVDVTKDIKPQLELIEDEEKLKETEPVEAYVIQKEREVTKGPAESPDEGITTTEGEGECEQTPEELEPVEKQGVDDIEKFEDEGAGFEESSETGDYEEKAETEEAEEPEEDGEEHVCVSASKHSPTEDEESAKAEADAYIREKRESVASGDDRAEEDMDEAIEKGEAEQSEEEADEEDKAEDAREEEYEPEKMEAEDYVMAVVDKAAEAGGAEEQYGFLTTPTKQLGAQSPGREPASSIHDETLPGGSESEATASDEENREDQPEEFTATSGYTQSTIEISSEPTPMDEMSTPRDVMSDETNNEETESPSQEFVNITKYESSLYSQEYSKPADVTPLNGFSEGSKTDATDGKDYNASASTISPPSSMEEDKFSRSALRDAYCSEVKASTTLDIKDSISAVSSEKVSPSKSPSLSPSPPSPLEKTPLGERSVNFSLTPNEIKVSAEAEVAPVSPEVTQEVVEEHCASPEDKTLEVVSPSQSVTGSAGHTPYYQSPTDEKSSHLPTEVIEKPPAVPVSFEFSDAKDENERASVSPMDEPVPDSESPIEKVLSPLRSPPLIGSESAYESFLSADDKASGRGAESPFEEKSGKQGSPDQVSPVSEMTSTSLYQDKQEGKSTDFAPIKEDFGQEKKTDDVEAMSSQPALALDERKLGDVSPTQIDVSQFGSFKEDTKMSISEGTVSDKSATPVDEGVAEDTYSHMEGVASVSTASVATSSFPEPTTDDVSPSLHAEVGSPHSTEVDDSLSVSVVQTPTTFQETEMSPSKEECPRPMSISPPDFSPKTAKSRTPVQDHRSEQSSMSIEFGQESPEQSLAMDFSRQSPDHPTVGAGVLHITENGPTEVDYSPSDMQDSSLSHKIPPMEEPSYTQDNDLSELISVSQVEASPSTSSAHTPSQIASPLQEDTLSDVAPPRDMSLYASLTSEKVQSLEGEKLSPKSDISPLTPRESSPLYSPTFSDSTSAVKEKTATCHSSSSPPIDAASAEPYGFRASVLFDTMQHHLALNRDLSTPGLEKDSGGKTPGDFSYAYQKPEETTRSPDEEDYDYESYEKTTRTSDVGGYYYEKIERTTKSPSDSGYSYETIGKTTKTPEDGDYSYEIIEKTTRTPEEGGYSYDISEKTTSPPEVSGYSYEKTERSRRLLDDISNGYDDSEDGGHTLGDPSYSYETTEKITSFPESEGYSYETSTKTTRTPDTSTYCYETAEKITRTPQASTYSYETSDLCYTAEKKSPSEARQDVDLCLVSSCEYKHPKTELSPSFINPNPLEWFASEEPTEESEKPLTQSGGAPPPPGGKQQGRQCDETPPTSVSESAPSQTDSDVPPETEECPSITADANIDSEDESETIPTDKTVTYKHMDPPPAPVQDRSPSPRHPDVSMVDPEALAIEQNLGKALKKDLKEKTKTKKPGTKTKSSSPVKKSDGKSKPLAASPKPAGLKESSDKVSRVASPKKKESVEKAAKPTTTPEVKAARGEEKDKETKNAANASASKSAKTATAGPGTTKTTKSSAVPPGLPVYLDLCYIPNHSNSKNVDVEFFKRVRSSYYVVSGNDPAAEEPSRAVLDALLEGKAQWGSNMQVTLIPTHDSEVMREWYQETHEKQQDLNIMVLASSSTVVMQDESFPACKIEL
UniProt P28482, whole entry, looked up: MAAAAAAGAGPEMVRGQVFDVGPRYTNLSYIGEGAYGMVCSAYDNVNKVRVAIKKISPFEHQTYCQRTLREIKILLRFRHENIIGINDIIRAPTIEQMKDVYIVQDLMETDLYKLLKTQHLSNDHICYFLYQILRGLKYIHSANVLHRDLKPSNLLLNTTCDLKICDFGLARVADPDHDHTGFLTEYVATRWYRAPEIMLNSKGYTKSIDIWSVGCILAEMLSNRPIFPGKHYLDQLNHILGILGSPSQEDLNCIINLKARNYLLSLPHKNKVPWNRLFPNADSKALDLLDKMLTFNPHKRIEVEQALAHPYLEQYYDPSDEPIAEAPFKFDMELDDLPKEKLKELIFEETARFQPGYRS
UniProt Q96A72, whole entry, looked up: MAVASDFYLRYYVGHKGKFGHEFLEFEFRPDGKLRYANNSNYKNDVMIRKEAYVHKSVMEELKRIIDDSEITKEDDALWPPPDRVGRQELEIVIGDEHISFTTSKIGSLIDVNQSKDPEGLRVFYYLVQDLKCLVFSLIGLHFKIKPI
UniProt Q9Y4Y9: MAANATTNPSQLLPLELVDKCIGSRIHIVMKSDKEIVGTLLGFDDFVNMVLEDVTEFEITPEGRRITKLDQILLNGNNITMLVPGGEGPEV
UniProt Q16539, whole entry, looked up: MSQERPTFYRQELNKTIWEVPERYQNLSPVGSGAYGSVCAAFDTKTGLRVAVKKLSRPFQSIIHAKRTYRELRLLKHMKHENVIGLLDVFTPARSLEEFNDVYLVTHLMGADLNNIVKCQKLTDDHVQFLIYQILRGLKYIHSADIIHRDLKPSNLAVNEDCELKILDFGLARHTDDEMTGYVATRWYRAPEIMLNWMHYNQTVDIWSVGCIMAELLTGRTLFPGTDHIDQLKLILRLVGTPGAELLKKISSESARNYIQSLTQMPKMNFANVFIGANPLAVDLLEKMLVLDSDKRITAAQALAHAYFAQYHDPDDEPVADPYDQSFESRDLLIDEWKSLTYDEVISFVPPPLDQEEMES

Columns and labels:
Assay in all cases: log2 fold change, soluble protein after heating vs DMSO (PISA); higher = thermal stabilisation; K562 cells, 10 uM, 30 min; active = over 0.2 and 3.5 SD of the protein, either way, in both replicates (recomputed)
[1] = compound: C1=CC=C(C=C1)[C@H](COC2=CC3=C(C=C2)NC(=O)N3)NC(=O)C4=CC=CN(C4=O)CC5=CC(=C(C=C5)F)F
Outline: (§1)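 Values are thermal stability changes relative to control samples and are taken from duplicates. They are stated as log2 fold changes. Before quantification by TMTpro 16plex LC-MS/MS with equalised channel sums, K562 cells at 2×10^6 cells/mL were treated with 10 μM compound for 30 min, heated in aliquots for 3 min across 48°C-58°C, pooled, extracted in PBS with 0.5% NP-40 at 4°C, and centrifuged at 21,000xg for 90 min to give the soluble supernatant.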

[2] = compound: CC1=C(SC2=C1C(=N[C@H](C3=NN=C(N32)C)CC(=O)N)C4=CC=C(C=C4)Cl)C
Outline: as §1

[3] = compound: CC1=C2C(=CC=C1)N=C(N(C2=O)C3=CC=CC=C3C)CN4C=NC5=C(N=CN=C54)N
Outline: as §1

[4] = compound: Cc1sc2c(c1C)C(c1ccc(Cl)cc1)=N[C@@H](CC(=O)OC(C)(C)C)c1nnc(C)n1-2
Outline: as §1

[5] = compound: c1ccc([C@@H]2C[C@H]2NC2CCNCC2)cc1
Outline: as §1

Measured: log2 fold change

MAP2K7 isoform 4 (UniProt O14733)
inactive: [1] -0.009 | [2] 0.029 | [3] 0.065 | [4] 0.013 | [5] 0.044

LSM14B (UniProt Q9BX40)
inactive: [1] -0.066 | [2] 0.03 | [3] 0.03 | [4] 0.099 | [5] -0.155

MAGEA8 (UniProt P43361)
inactive: [1] 0.075 | [2] -0.035 | [3] 0.02 | [4] -0.119 | [5] 0.077

MAP1B (UniProt P46821)
inactive: [1] 0.029 | [2] -0.046 | [3] -0.024 | [4] -0.005 | [5] 0.014

MAPK1 (UniProt P28482)
inactive: [1] -0.018 | [2] 0.026 | [3] -0.013 | [4] -0.005 | [5] -0.021

MACF1 (UniProt H3BQK9)
inactive: [1] -0.026 | [2] 0.013 | [3] 0.309 | [4] 0.029 | [5] -0.04

MAGOHB (UniProt Q96A72)
inactive: [1] 0.02 | [2] 0.042 | [3] 0.079 | [4] -0.153 | [5] -0.129

LSM5 (UniProt Q9Y4Y9)
inactive: [1] -0.227 | [2] -0.264 | [4] -0.125 | [5] -0.36

MAPK14 (UniProt Q16539)
inactive: [1] -0.01 | [2] 0.153 | [3] 0.061 | [4] -0.03 | [5] -0.089
